Article doi:10.1101/2020.11.19.389494
No constants are given. Whether binding was seen depends on the method and setting.

Target: mouse plexin B2 Rho GTPase binding domain (RBD) (mouse) (UniProt B2RXS4)
Assay: crystal structure

B1: mouse plexin B2 Rho GTPase binding domain (RBD) (domain or fragment, UniProt B2RXS4 1463-1565)
chain: EYAPLTVSVIVQDEGIDAIPVKVLNCDTISQVKEKIIDQVYRTQPCSCWPKPDSVVLEWRPGSTAQILSDLDLTSQREGRWKRINTLMHYNVRDGATLILSKV
  binding: no binding
